Results: patent US20170368148A1, “USES OF A PTHrP ANALOGUE IN REDUCING FRACTURE RISK” (RADIUS HEALTH, INC., priority 2015, published 2017)
Part of at least one peptide drawing is inferred or uncertain, most often the ends.

Legend:
[1] = test system: ovariectomized (OVX) osteopenic rats; experiment: OVX osteopenic rats: biomechanical testing of L4 and femur; format: in vivo, rat; settings: for AAMI (axial area of the moment inertia), femur / AP Diameter, femur / Elastic Modulus, L4 vertebral compression / Elastic Modulus, three point bending test of the femur / Energy, L4 vertebral compression / Energy, cantilever compression, femoral neck / Energy, three point bending test of the femur / Maximum Load, L4 vertebral compression / Maximum Load, cantilever compression, femoral neck / Maximum Load, three point bending test of the femur / Stiffness, L4 vertebral compression / Stiffness, cantilever compression, femoral neck / Stiffness, three point bending test of the femur / Toughness, L4 vertebral compression / Toughness, three point bending test of the femur / Ult. Strength, L4 vertebral compression / Ult. Strength, three point bending test of the femur: 6 weeks, mean ± SD
[2] = test system: postmenopausal women with osteoporosis; experiment: ACTIVE trial: bone turnover markers (CTX, P1NP); format: in vivo, human; settings: at 18 months
Description: The ACTIVE phase 3 fracture prevention trial was conducted for abaloparatide in postmenopausal women with osteoporosis who were otherwise healthy. The enrolled subjects were treated with 80 micrograms (μg) of abaloparatide, a matching placebo, or the approved daily dose of 20 μg of teriparatide for 18 months. The ACTIVE trial evaluated fracture rates, fracture risks, BMD, and bone turnover biomarkers (e.g., CTX and P1NP) in all patient groups.
BMD and bone turnover biomarkers (CTX and P1NP) were also evaluated in all patient groups to compare the effects of abaloparatide versus teriparatide.

[3] = test system: postmenopausal osteoporotic women; experiment: Trabecular bone score (TBS) from spinal DXA, phase 2 trial; format: in vivo, human
Excerpt: To assess the effects of the PTHrP analogue abaloparatide on trabecular microarchitecture as indirectly assessed by TBS, the TBS (TBS Calculator v2.2, Medimaps group, Plan-les-Ouates, Geneva, Switzerland) in a blinded fashion at 0, 12, and 24-weeks in 222 postmenopausal osteoporotic women (age 55-85) who were randomized to receive 24-weeks of daily subcutaneous injections of placebo, abaloparatide 20-μg, abaloparatide 40-μg. abaloparatide 80-μg, or teriparatide (TPTD) 20-μg was retrospectively calculated. Between groups differences in the mean percent TBS changes were assessed by unpaired t-test.

[4] = test system: postmenopausal women with osteoporosis; experiment: Phase 2 24-week dose-finding trial (48-week extension): BMD by DXA; format: in vivo, human
Excerpt: Healthy postmenopausal women between the ages of 55 to 85 (based on a 5-year history of amenorrhea and an elevated serum level of FSH) were enrolled in the study if they met one of the following the following definitions of osteoporosis:
Dual X-ray absorptiometry: DXA scans were obtained at each local site and then sent to a central imaging reader (BioClinica Inc. Newton, PA) where they underwent a quality control review and then analyzed according to each manufacturers guidelines. Scans performed during the treatment period on the same instrument used for the baseline scan were acquired. Each study site performed Instrument Quality Control over time (instrument standardization and phantom calibration) that was reviewed by the central reader.
BMD was re-measured at the 48-week visit.

[5] = 24 weeks, abaloparatide 80 μg, teriparatide 20 μg, valid-completers
[6] = 48 weeks (extension), 20 μg daily SC
[7] = 48 weeks (extension), 40 μg daily SC
[8] = 48 weeks (extension), 80 μg daily SC

## CC[C@H](C)[C@H](NC(=O)[C@H](CO)NC(=O)[C@H](CCCCN)NC(=O)CNC(=O)[C@H](CCCCN)NC(=O)[C@H](CC(=O)O)NC(=O)[C@H](Cc1c[nH]cn1)NC(=O)[C@H](CC(C)C)NC(=O)[C@H](CC(C)C)NC(=O)[C@H](CCC(N)=O)NC(=O)[C@H](Cc1c[nH]cn1)NC(=O)[C@H](CCC(=O)O)NC(=O)[C@H](CO)NC(=O)[C@@H](NC(=O)[C@H](C)N)C(C)C)C(=O)N[C@@H](CCC(N)=O)C(=O)N[C@@H](CC(=O)O)C(=O)N[C@@H](CC(C)C)C(=O)N[C@@H](CCCNC(=N)N)C(=O)N[C@@H](CCCNC(=N)N)C(=O)N[C@@H](CCCNC(=N)N)C(=O)N[C@@H](CCC(=O)O)C(=O)N[C@@H](CC(C)C)C(=O)N[C@@H](CC(C)C)C(=O)N[C@@H](CCC(=O)O)C(=O)N[C@@H](CCCCN)C(=O)N[C@@H](CC(C)C)C(=O)N[C@@H](CC(C)C)C(=O)NC(C)(C)C(=O)N[C@@H](CCCCN)C(=O)N[C@@H](CC(C)C)C(=O)N[C@@H](Cc1c[nH]cn1)C(=O)N[C@H](C(=O)N[C@@H](C)C(N)=O)[C@@H](C)O [abaloparatide, [Glu^22,25, Leu^23,28,31, Aib^29, Lys^26,30]hPTHrP(1-34)NH2]
[1]; 5 μg/kg
  L4 energy absorbed compared to OVX-Veh: 280%
  L4 maximum load compared to OVX-Veh: 170%
  L4 ultimate strength compared to OVX-Veh: 170%
  AAMI (axial area of the moment inertia), femur: 6.9 ± 1.0 mm4
  AP Diameter, femur: 3.2 ± 0.1 mm
  Elastic Modulus, L4 vertebral compression: 963 ± 565 ^ MPa
  Elastic Modulus, three point bending test of the femur: 7381 ± 1502 ^ MPa
  Energy, L4 vertebral compression: 62 ± 38 mJ
  Energy, cantilever compression, femoral neck: 46 ± 25 mJ
  Energy, three point bending test of the femur: 78 ± 17 mJ
  Maximum Load, L4 vertebral compression: 323 ± 68 N
  Maximum Load, cantilever compression, femoral neck: 123 ± 25 N
  Maximum Load, three point bending test of the femur: 223 ± 16 N
  Stiffness, L4 vertebral compression: 1872 ± 1037 ^ N/mm
  Stiffness, cantilever compression, femoral neck: 226 ± 65 ^ N/mm
  Stiffness, three point bending test of the femur: 874 ± 120 N/mm
  Toughness, L4 vertebral compression: 1.86 ± 1.04 MJ/m^3
  Toughness, three point bending test of the femur: 6.3 ± 1.3 MJ/m^3
  Ult. Strength, L4 vertebral compression: 40 ± 9 N/mm^2
  Ult. Strength, three point bending test of the femur: 185 ± 18 N/mm^2
[1]; 20 μg/kg
  L4 energy absorbed compared to OVX-Veh: 290%
  L4 maximum load compared to OVX-Veh: 180%
  L4 ultimate strength compared to OVX-Veh: 180%
  AAMI (axial area of the moment inertia), femur: 6.9 ± 1.3 mm4
  AP Diameter, femur: 3.2 ± 0.2 mm
  Elastic Modulus, L4 vertebral compression: 941 ± 509 ^ MPa
  Elastic Modulus, three point bending test of the femur: 7449 ± 1480 MPa
  Energy, L4 vertebral compression: 64 ± 29 mJ
  Energy, cantilever compression, femoral neck: 46 ± 14 mJ
  Energy, three point bending test of the femur: 76 ± 20 mJ
  Maximum Load, L4 vertebral compression: 336 ± 76 N
  Maximum Load, cantilever compression, femoral neck: 116 ± 20 N
  Maximum Load, three point bending test of the femur: 224 ± 25 N
  Stiffness, L4 vertebral compression: 1845 ± 954 ^ N/mm
  Stiffness, cantilever compression, femoral neck: 198 ± 56 N/mm
  Stiffness, three point bending test of the femur: 872 ± 127 N/mm
  Toughness, L4 vertebral compression: 1.85 ± 0.62 MJ/m^3
  Toughness, three point bending test of the femur: 6.0 ± 1.4 MJ/m^3
  Ult. Strength, L4 vertebral compression: 41 ± 9 N/mm^2
  Ult. Strength, three point bending test of the femur: 184 ± 19 N/mm^2
[1]; both groups (5 μg/kg and 20 μg/kg)
  L4 toughness compared to OVX-Veh: 270%
[2]
  CTX level compared to placebo: statistically insignificant compared to placebo
[3]; 12 weeks, 20 μg daily SC
  TBS mean percent change: +1.2%
[3]; 12 weeks, 40 μg daily SC
  TBS mean percent change: +1.7%
[3]; 12 weeks, 80 μg daily SC
  TBS mean percent change: +1.9%
[3]; 24 weeks, 20 μg daily SC
  TBS mean percent change: +2.4%
[3]; 24 weeks, 40 μg daily SC
  TBS mean percent change: +2.7%
[3]; 24 weeks, 80 μg daily SC
  TBS mean percent change: +3.6%
[4]; 24 weeks, 20 μg daily SC
  Femoral neck BMD increase: 2.7±4.0%
  Lumbar spine BMD increase (±SD): 2.9±2.6%
  Total hip BMD increase: 1.4±2.6%
[4]; 24 weeks, 40 μg daily SC
  Femoral neck BMD increase: 2.2±4.4%
  Lumbar spine BMD increase (±SD): 5.2±4.5%
  Total hip BMD increase: 2.0±3.7%
[4]; 24 weeks, 80 μg daily SC
  Femoral neck BMD increase: 3.1±4.2%
  Lumbar spine BMD increase (±SD): 6.7±4.2%
  Total hip BMD increase: 2.6±3.5%
[4]; [5]
  Percentage of subjects with a >3% BMD gain at the lumbar spine: 86%
  Percentage of subjects with a >3% total hip BMD gain: 37%
[4]; [6]
  Femoral neck BMD increase: 3.9%
  Lumbar spine BMD increase: 5.1%
  Total hip BMD increase: 1.9%
[4]; [7]
  Femoral neck BMD increase: 1.8%
  Lumbar spine BMD increase: 9.8%
  Total hip BMD increase: 2.1%
[4]; [8]
  Femoral neck BMD increase: 4.1%
  Lumbar spine BMD increase: 12.9%
  Total hip BMD increase: 2.7%
